Laboratory results: the supplement of paper PMC11732987, “Enantioselective OTUD7B fragment discovery through chemoproteomics screening and high-throughput optimisation” (Communications Chemistry, 2025)
This is one part of the list. The data scatter; read single values as rough.

Amino acid sequences for entries named in this document (tags omitted). A change or cut given only in a name is not applied to a line headed by its entry.
UniProt Q8N442: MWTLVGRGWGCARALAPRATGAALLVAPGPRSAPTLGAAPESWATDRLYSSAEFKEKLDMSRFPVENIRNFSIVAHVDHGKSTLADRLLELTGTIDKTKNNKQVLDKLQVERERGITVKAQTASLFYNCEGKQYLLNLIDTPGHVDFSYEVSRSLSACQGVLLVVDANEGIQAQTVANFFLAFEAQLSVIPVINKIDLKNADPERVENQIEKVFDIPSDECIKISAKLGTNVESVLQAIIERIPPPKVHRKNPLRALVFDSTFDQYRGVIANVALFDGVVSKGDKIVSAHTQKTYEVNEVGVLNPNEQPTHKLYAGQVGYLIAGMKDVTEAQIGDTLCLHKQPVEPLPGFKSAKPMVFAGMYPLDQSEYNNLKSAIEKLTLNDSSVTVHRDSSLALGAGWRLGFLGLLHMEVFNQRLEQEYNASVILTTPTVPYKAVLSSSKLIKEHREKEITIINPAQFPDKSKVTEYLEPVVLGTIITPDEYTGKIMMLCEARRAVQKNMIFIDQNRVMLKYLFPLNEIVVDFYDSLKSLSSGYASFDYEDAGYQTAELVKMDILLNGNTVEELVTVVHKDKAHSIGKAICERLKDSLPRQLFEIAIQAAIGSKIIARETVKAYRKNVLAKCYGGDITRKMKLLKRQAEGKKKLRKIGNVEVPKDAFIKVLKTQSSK
UniProt Q12789: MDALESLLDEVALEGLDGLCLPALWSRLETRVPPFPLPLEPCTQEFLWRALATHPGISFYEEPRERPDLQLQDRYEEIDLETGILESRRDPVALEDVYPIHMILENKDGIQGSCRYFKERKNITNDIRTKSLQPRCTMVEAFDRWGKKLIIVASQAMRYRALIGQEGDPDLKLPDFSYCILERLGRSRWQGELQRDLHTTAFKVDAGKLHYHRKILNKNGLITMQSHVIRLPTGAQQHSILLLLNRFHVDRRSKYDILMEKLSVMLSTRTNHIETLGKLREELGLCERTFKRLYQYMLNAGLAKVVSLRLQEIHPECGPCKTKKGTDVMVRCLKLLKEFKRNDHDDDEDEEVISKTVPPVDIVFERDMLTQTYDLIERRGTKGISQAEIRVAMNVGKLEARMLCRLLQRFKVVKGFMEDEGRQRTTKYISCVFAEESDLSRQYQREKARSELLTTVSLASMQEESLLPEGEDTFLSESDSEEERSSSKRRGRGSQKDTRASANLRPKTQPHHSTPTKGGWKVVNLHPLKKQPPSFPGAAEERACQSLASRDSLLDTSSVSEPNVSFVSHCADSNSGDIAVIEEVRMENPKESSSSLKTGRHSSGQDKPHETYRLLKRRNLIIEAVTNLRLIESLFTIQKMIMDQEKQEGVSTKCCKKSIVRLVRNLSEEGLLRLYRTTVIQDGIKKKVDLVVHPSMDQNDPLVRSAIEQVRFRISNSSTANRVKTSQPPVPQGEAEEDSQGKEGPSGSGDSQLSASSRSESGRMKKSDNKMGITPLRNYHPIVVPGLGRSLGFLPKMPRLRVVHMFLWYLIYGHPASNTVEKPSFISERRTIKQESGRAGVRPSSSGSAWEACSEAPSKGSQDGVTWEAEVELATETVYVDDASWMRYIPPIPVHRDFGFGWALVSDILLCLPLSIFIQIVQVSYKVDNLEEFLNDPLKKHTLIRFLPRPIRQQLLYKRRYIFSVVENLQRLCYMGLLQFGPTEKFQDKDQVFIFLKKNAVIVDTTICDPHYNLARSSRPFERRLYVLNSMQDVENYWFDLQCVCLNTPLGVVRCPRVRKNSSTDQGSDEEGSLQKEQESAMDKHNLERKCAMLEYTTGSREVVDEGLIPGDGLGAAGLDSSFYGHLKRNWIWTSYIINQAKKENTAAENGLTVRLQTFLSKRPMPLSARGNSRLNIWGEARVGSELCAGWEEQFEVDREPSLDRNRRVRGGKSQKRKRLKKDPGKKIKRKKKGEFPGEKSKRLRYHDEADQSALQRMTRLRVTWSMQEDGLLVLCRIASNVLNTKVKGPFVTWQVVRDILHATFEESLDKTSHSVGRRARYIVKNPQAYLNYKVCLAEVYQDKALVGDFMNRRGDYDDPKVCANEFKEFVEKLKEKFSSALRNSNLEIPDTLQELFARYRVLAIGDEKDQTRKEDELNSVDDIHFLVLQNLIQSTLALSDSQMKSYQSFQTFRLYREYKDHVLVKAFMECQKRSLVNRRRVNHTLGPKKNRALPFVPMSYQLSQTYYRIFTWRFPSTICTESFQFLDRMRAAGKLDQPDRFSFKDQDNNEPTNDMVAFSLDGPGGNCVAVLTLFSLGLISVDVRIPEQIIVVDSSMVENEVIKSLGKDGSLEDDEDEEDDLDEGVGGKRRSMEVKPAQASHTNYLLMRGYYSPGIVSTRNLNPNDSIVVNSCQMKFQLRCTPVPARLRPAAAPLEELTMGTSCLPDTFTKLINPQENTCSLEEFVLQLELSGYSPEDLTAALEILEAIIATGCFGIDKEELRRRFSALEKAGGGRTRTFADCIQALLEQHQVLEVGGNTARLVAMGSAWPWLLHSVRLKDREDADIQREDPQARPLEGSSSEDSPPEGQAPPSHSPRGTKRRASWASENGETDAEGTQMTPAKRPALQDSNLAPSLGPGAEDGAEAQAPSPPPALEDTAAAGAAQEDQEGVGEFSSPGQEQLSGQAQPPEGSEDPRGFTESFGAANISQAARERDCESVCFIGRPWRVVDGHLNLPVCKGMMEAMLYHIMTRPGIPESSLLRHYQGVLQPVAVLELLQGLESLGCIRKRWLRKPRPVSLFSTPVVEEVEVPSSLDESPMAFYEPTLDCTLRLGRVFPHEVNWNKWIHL
UniProt P21266: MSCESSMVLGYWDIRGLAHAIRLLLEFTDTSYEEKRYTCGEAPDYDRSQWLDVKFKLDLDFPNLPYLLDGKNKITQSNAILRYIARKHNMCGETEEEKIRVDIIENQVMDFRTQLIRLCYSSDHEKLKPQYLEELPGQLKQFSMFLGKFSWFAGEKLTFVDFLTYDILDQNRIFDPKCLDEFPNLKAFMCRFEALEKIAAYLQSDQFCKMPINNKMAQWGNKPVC
UniProt Q8WUI4: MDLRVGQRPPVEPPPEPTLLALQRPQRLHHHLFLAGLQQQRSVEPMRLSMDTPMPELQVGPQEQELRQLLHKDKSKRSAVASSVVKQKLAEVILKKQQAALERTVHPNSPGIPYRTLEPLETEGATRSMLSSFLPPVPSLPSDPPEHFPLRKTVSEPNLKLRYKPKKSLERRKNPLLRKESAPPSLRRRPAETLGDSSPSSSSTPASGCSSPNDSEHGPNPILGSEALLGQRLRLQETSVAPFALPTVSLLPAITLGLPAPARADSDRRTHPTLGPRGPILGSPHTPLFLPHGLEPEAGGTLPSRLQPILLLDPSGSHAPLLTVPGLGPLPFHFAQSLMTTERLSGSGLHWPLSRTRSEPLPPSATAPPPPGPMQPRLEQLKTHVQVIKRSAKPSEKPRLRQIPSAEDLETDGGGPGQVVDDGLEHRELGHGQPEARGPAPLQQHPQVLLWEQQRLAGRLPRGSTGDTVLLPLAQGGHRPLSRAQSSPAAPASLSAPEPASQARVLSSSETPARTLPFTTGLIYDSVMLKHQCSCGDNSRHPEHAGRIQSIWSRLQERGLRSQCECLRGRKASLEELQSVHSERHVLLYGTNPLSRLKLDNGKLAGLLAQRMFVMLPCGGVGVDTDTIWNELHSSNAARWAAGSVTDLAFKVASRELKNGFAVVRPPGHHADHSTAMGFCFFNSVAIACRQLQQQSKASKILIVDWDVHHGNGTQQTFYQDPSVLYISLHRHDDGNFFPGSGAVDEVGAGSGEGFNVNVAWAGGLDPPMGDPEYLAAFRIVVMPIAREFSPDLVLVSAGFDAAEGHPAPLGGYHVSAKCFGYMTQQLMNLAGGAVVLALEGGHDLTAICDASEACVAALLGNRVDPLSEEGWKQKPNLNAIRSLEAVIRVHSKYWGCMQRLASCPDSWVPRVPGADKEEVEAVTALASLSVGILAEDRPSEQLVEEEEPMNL
UniProt P51610: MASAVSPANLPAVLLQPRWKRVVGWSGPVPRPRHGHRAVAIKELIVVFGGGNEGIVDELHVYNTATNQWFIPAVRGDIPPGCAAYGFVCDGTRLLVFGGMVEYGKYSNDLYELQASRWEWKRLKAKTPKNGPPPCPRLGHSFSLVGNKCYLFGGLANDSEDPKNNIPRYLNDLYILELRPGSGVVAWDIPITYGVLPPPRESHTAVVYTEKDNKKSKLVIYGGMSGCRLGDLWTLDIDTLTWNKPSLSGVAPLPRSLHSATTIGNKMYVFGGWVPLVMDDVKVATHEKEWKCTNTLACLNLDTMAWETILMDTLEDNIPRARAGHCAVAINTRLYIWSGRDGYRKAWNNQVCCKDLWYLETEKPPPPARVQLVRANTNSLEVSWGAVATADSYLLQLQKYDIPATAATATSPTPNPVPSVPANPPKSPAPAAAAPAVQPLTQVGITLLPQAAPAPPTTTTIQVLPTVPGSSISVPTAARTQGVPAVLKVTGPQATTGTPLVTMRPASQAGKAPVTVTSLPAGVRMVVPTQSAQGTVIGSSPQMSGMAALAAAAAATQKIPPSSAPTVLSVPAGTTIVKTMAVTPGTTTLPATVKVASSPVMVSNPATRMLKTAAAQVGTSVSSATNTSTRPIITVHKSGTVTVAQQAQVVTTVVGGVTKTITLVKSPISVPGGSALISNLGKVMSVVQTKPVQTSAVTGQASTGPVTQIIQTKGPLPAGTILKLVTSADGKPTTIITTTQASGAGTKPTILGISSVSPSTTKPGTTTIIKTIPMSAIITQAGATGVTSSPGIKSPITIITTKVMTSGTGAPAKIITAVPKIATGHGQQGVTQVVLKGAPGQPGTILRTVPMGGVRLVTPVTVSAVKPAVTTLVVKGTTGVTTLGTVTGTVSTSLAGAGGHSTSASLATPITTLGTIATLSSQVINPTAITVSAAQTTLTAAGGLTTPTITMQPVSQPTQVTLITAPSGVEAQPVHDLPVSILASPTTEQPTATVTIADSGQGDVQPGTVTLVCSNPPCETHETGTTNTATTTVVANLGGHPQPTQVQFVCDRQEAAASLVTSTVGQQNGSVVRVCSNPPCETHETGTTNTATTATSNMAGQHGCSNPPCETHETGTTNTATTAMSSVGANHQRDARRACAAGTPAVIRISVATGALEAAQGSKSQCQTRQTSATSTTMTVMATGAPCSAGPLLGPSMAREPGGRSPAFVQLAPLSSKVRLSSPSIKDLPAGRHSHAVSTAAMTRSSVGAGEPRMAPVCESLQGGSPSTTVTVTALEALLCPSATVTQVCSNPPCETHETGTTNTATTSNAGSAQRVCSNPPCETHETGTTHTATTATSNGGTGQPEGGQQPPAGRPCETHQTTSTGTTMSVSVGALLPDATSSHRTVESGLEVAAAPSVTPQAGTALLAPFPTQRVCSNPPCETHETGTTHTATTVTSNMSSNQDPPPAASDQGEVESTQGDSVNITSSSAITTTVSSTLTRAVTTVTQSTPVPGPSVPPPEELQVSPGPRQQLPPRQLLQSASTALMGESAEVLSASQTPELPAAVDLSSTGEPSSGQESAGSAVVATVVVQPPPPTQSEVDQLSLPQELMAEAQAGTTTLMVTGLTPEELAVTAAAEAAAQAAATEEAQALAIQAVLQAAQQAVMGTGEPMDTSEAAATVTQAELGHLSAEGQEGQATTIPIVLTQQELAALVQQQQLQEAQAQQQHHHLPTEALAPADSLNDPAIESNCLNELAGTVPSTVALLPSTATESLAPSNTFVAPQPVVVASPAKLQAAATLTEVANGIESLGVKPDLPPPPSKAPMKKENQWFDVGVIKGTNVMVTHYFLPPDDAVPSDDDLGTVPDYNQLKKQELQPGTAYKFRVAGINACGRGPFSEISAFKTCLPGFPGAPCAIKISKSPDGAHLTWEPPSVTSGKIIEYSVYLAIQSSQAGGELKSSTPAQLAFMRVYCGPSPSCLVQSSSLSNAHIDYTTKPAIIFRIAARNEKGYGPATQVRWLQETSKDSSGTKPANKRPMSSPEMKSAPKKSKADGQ
UniProt P32780: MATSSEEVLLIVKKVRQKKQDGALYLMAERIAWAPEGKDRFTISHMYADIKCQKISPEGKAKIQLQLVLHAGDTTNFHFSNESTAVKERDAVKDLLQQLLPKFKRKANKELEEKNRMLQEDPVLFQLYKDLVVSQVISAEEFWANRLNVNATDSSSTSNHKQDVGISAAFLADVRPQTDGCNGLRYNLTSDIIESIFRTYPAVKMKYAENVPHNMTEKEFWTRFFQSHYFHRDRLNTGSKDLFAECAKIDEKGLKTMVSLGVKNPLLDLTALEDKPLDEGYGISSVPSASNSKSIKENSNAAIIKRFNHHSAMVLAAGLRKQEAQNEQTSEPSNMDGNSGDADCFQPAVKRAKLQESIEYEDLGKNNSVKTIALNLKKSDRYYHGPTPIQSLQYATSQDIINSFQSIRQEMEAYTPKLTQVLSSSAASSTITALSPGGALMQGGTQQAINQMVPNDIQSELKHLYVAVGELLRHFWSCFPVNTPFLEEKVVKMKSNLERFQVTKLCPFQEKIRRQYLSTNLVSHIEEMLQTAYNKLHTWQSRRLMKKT

Assays:
[1] = compound: ClCC(=O)N[C@@H]1CCCc2ccccc12; experiment: log2 mean competition ratio of IA-DTB cysteine labelling (DMSO/compound) (log2 ratio); higher = stronger cysteine engagement by compound; settings: treatment time: 4 h, cell line lysate: HEK293T
Procedure: (§1)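 IA-DTB competitive cysteine chemoproteomics in HEK293T RIPA lysate. Lysates were treated with compound 29 or 30 at 50 or 200 µM for 4 h, then IA-DTB (500 µM, 1 h), trypsin-digested, NeutrAvidin-enriched and analysed by diaPASEF. Competition ratio = intensity DMSO / intensity compound (n=4 treated, n=64 DMSO); binding: mean log2 CR ≥ 1 and p ≤ 0.05 plus QC filters. Target is the cysteine site.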

[2] = compound: ClCC(=O)N[C@H]1CCCc2ccccc12; experiment: as above; settings: treatment time: 4 h, cell line lysate: HEK293T
Procedure: as §1

| Target | log2 mean competition ratio ([1]; 50 µM) | log2 mean competition ratio ([1]; 200 µM) | log2 mean competition ratio ([2]; 50 µM) | log2 mean competition ratio ([2]; 200 µM) |
| --- | --- | --- | --- | --- |
| HMGCS1 C86 (UniProt Q01581) | 0.581 | -0.193 | 0.517 | -0.239 |
| HOXB6 C88 | -0.238 | -0.591 | -0.339 | -0.38 |
| GTF2I C475 (UniProt P78347) | 0.0636 | 0.144 | 0.243 | 0.285 |
| GUF1 C221 (UniProt Q8N442) | -0.298 | -0.0374 | -0.106 | 0.179 |
| HECTD4 C1488 | -0.307 | 0.09 | 0.515 | 0.0399 |
| HOXB6 C184 | 0.0983 | 0.177 | 0.167 | 0.0571 |
| HEXA C522 (UniProt P06865) | 0.205 | -0.365 | 0.352 | -0.37 |
| HK2 C628 (UniProt P52789) | -0.219 | 0.00802 | -0.42 | 0.0724 |
| GTF3C1 C114 (UniProt Q12789) | -0.0233 | 0.235 | 0.304 | 0.245 |
| HELZ2 C1545 (UniProt Q9BYK8) | -0.0422 | 0.444 | -0.424 | -0.224 |
| HJURP C348 (UniProt Q8NCD3) | 0.058 | 0.0941 | 0.0681 | 0.238 |
| HES1 C128 (UniProt Q14469) | -0.129 | -0.031 | -0.227 | -0.0834 |
| GSTM3 C39 (UniProt P21266) | -0.0451 | -0.3 | -0.0923 | -0.224 |
| HECTD1 C2071 (UniProt Q9ULT8) | -0.195 | -0.61 | -0.209 | -0.197 |
| GYS1 C699 (UniProt P13807) | 0.12 | -0.24 | 0.0291 | -0.109 |
| HARS1 C235 | -0.125 | -0.0836 | 0.0695 | -0.172 |
| HOXA5 C233 | 0.2 | 0.428 | -0.0862 | 0.19 |
| HMGCR C561 (UniProt P04035) | 0.101 | -0.206 | 0.119 | -0.0153 |
| GXYLT1 C196 (UniProt Q4G148) | 0.195 | 0.727 | 0.108 | 0.408 |
| HAUS6 C185 (UniProt Q7Z4H7) | -0.186 | 0.178 | -0.133 | 0.128 |
| HECTD3 C592 (UniProt Q5T447) | -0.163 | 0.0383 | 0.09 | 0.201 |
| HEATR3 C134 (UniProt Q7Z4Q2) | 0.0748 | -0.16 | 0.84 | -0.0986 |
| GUF1 C129 (UniProt Q8N442) | 0.206 | -0.129 | 0.541 | -0.128 |

Another view of part of the listing above:
Target	log2 mean competition ratio ([1]; 50 µM)	log2 mean competition ratio ([1]; 200 µM)	log2 mean competition ratio ([2]; 50 µM)	log2 mean competition ratio ([2]; 200 µM)
GUF1 C221 (UniProt Q8N442)	-0.298	-0.0374	-0.106	0.179
HJURP C348 (UniProt Q8NCD3)	0.058	0.0941	0.0681	0.238

Remaining list, next part:

| Target | log2 mean competition ratio ([1]; 50 µM) | log2 mean competition ratio ([1]; 200 µM) | log2 mean competition ratio ([2]; 50 µM) | log2 mean competition ratio ([2]; 200 µM) |
| --- | --- | --- | --- | --- |
| HELLS C205 (UniProt Q9NRZ9) | 0.0902 | 0.0634 | 0.0365 | 0.0359 |
| GSTM3 C3 (UniProt P21266) | -0.142 | -0.337 | 0.547 | -0.13 |
| HDAC7 C904 (UniProt Q8WUI4) | 0.00659 | -0.121 | -0.215 | 0.202 |
| HMGCR C600 (UniProt P04035) | 0.0641 | 0.224 | 0.0197 | 0.257 |
| HECTD3 C530 (UniProt Q5T447) | -0.0795 | 0.082 | -0.334 | -0.534 |
| HK2 C823 (UniProt P52789) | 0.196 | -0.286 | 0.227 | -0.22 |
| HERC5 C302 (UniProt Q9UII4) | -0.0374 | -0.0431 | -0.152 | -0.0127 |
| HELZ C863 (UniProt P42694) | -0.0148 | -0.0749 | -0.0823 | -0.0795 |
| HOXC6 C87 | 0.00327 | 0.251 | 0.143 | 0.375 |
| HERC2 C2760 (UniProt O95714) | -0.228 | 0.0916 | -0.397 | -0.307 |
| HMCES C266 (UniProt Q96FZ2) | -0.387 | -0.346 | -0.649 | -0.359 |
| HCFC1 C1139 (UniProt P51610) | 0.0279 | 0.255 | -0.171 | 0.357 |
| GTF3C1 C1363 (UniProt Q12789) | -0.00838 | -0.209 | 0.567 | -0.0217 |
| GTPBP3 C46 (UniProt Q969Y2) | 0.272 | 0.0689 | -0.0183 | 0.244 |
| GTF3C1 C1681 (UniProt Q12789) | -0.0386 | -0.0956 | 0.208 | -0.093 |
| HAUS6 C424 (UniProt Q7Z4H7) | 0.227 | 0.305 | -0.125 | 0.219 |
| GTF3C5 C439 (UniProt Q9Y5Q8) | 0.0888 | 0.33 | -0.0836 | 0.584 |
| HK1 C823 (UniProt P19367) | -0.0362 | -0.303 | 0.481 | -0.0926 |
| GTF2H1 C246 (UniProt P32780) | -0.186 | -0.0739 | 0.326 | 0.174 |
| HDLBP C104 | 0.357 | -0.0177 | -0.0668 | 0.0184 |
| HGH1 C51 (UniProt Q9BTY7) | 0.128 | 0.131 | 0.252 | 0.0913 |
| GTPBP1 C313 (UniProt O00178) | 0.0814 | -0.492 | 0.0526 | -0.251 |
